Laboratory results from paper PMC6147799.
These are yes or no findings as the source states them, for the method shown. In cells and extracts the contact can be indirect. Some binding calls cover weakened binding; strength is not graded here. Blank lines part the entries; values can stand above or below the substance they belong to.

By UniProt entry, the sequences of proteins in these tests, tags left out.
UniProt P61809: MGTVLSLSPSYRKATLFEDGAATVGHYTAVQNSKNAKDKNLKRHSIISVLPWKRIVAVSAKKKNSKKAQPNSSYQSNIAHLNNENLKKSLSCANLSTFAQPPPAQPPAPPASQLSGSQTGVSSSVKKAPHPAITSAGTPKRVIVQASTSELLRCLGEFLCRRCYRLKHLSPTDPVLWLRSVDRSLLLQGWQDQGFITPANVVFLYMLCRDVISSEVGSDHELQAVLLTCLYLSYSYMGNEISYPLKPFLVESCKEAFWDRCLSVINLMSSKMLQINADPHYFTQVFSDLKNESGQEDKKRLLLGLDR
UniProt Q9QYB1: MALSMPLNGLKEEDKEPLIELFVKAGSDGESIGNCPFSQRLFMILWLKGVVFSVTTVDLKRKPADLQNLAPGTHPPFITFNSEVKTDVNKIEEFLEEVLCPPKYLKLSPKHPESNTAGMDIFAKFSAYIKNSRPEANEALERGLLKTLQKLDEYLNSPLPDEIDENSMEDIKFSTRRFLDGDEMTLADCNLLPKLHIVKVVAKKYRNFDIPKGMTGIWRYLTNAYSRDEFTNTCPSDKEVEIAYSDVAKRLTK

Tests used:
[1] = target: p35 (CDK5 activator), endogenous in mouse brain (mouse (endogenous in brain)) (UniProt P61809); test: co-IP; brain homogenates of wild-type C57BL/6 mice in TNEN buffer; anti-CLIC4, anti-CDK5 or anti-p35 antibody overnight at 4 °C, Protein G Dynabeads 2 h at 4 °C; endogenous proteins, immunoblot
[2] = target: Cyclin-dependent kinase 5 (CDK5), endogenous in mouse brain (mouse (endogenous in brain)) (UniProt P49615); test: as above
[3] = target: GST-CLIC4 (glutathione S-transferase attached chloride intracellular channel 4) (UniProt Q9QYB1); test: pull-down; GST or GST-CLIC4 transiently transfected in N2a cells, precipitated from lysates with Glutathione Sepharose for 2 h at 4 °C, washed with TNEN buffer (50 mM Tris-HCl 8.0, 150 mM NaCl, 5 mM EDTA, 1% NP-40); endogenous proteins detected by immunoblot
GST-CDK5 = GST-CDK5 (UniProt P49615); test: pull-down; GST-CDK5 and HA-CLIC4 co-expressed in N2a cells, precipitated from lysates with Glutathione Sepharose for 2 h at 4 °C, washed with TNEN buffer; immunoblot
VC155-CLIC4 = VC155-CLIC4 (UniProt Q9QYB1); test: split reporter; BiFC: VN173-CDK5 and VC155-CLIC4 co-expressed in N2a cells; reconstituted Venus-type GFP fluorescence seen by microscopy

binding [1]: binds
binding [2]: binds
Substance: Chloride intracellular channel 4 (CLIC4), endogenous in mouse brain (from UniProt Q9QYB1 1-253)

binding [3]: binds
Substance: Cyclin-dependent kinase 5 (CDK5), endogenous in N2a cells (from UniProt P49615 1-292) (enzyme)

binding (GST-CDK5): binds
Substance: HA-CLIC4 (from UniProt Q9QYB1 1-253)

binding (VC155-CLIC4): binds
Substance: VN173-CDK5 (from UniProt P49615 1-292) (enzyme)

binding [3]: binds
Substance: p35 (CDK5 activator), endogenous in N2a cells (from UniProt P61809 1-307)
